Results taken from patent US9850282B2 (priority 2013, dated 2017).
No end group written: not given here.

Assay: peptide synthesis
Settings: late stage modification step

Sequence	final HPLC purity (D-arginine salt (1:2))	final HPLC purity (L-arginine salt (1:1))	final HPLC purity (L-lysine salt (1:3))	final HPLC purity (L-ornithine salt (1:2))	final HPLC purity (L-arginine salt (1:2))
GEPPPGKPADDAGLV	99.48%	98.57%	99.47%	99.30%	–
GEPPPGKPADDAGLV [Arg-BPC]	–	–	–	–	99.54%
